Like-named read-outs stand apart in the source and are kept apart here. No constants are given. Whether binding was seen depends on the method and setting. Binding seen in cells or lysates may run through a third protein. Some binding calls cover weakened binding; strength is not graded here.

By UniProt entry, the sequences of proteins in these tests, tags left out. Where a name states a change or a piece, a line headed by the entry shows the natural chain unless it says otherwise. Chains listed by the source or under a name are the forms on record and can include a tag or linker. Residues count along the entry.
wild-type IRBP with a C-terminally fused FLAG or HA epitope (P10745, residues 18-1247): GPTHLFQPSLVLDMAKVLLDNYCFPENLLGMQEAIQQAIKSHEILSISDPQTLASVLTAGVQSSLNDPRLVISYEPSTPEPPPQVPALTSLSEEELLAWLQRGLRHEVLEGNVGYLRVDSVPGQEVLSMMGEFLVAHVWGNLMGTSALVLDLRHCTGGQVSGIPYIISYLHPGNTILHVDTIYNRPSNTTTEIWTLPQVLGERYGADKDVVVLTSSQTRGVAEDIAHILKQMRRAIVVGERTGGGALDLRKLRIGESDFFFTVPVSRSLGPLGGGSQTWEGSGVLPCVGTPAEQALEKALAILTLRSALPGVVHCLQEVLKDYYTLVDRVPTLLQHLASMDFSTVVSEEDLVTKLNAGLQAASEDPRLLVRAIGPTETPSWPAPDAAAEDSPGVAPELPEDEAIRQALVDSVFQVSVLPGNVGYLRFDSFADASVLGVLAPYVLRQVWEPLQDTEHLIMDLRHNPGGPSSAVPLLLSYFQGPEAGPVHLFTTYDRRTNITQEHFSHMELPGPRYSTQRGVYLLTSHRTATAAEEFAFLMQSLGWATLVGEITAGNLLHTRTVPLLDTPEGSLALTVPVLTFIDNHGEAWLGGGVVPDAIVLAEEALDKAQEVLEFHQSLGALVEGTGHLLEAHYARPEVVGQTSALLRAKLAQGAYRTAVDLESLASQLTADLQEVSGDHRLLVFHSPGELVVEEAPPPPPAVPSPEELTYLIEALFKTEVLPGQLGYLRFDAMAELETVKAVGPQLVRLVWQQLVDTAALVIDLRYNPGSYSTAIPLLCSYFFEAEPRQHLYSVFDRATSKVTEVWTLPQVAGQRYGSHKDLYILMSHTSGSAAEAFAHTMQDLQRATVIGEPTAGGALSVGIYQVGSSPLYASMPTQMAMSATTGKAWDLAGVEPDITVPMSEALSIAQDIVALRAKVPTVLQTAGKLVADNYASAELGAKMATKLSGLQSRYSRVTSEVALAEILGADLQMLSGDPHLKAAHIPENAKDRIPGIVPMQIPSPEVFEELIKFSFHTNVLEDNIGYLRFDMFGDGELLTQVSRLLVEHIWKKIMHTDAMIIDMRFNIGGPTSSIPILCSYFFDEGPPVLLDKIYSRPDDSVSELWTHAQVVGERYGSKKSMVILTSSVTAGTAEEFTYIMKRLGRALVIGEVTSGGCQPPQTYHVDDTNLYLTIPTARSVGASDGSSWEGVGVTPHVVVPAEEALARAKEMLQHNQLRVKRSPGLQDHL
D1080N interphotoreceptor retinoid-binding protein (D1080N IRBP) (P10745, form named): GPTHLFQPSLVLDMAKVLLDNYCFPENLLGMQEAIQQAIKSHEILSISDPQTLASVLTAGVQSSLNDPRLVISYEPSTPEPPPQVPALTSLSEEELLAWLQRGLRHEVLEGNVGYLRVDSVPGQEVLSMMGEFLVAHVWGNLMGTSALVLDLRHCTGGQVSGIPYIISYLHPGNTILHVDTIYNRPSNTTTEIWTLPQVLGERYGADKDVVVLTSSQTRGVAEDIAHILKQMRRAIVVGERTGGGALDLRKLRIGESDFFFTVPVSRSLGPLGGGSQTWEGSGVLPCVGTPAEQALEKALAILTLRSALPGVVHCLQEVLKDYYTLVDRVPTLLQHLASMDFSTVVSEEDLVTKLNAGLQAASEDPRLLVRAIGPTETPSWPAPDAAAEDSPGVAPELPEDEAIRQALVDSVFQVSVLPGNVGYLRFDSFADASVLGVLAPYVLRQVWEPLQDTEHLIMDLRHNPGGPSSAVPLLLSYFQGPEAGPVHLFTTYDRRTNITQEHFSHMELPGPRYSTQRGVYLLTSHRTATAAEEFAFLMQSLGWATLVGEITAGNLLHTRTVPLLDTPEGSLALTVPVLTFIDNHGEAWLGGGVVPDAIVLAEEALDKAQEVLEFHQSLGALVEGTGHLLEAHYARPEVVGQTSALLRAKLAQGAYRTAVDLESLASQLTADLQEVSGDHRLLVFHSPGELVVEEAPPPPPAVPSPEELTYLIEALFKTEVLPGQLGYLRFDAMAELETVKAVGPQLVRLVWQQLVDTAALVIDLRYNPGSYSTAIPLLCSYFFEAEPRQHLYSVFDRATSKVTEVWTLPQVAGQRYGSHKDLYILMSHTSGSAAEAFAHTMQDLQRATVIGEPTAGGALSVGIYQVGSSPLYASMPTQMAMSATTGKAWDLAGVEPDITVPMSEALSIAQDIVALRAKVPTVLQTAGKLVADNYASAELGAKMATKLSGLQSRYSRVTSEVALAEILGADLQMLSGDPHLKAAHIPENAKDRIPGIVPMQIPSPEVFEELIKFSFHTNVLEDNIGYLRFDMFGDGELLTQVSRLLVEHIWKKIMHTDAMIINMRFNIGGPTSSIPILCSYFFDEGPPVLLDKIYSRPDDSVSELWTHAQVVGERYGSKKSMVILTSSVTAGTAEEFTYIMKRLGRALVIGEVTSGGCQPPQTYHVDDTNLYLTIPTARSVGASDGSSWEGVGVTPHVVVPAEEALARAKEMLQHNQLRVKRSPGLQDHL
UniProt P11021, residues 19-654: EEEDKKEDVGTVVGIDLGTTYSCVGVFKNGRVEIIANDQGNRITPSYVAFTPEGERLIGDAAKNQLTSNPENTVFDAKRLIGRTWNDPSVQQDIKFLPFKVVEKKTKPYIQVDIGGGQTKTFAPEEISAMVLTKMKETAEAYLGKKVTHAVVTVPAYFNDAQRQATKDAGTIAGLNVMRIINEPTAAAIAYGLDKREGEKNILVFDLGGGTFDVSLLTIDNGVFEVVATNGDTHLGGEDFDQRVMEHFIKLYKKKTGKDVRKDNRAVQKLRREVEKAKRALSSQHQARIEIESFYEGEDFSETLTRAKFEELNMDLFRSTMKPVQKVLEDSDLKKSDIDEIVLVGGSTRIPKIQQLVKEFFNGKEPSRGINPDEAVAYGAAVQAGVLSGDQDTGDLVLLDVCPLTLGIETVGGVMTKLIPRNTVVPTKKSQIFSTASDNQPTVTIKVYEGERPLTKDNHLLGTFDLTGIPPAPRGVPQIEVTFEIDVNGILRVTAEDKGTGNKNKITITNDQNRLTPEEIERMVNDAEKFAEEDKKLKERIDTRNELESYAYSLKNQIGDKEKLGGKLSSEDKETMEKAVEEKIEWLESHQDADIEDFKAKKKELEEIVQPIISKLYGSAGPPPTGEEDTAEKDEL

The target of experiment [1] is D1080N interphotoreceptor retinoid-binding protein (D1080N IRBP) (human) (UniProt P10745). Put plainly: co-IP; 293T-LC cells expressing WT or D1080N IRBP; lysis in 50 mM Tris-HCl pH 7.4, 150 mM NaCl, 1 mM EDTA, 0.5% Nonidet P-40; immunoprecipitation with an affinity-purified IRBP antibody (Dynabeads kit); precipitates probed with antibodies against PDI/PDIA2 or BiP.
Experiment [2] deals with wild-type IRBP with a C-terminally fused FLAG or HA epitope (human) (UniProt P10745). Put plainly: co-IP; 293T-LC cells co-expressing WT and D1080N IRBPs tagged with FLAG or HA; immunoprecipitation with a FLAG antibody (anti-FLAG M2 affinity gel), precipitates probed with an HA antibody.
The target in experiment [3] is D1080N IRBP with a C-terminally fused FLAG or HA epitope (human) (UniProt P10745). The experiment is described as above.
Experiment [4] concerns the target D1080N interphotoreceptor retinoid-binding protein (D1080N IRBP) (human) (UniProt P10745). Description: co-IP; 293T-LC cells expressing WT or D1080N IRBP; lysis in 50 mM Tris-HCl pH 7.4, 150 mM NaCl, 1 mM EDTA, 0.5% Nonidet P-40; immunoprecipitation with an affinity-purified IRBP antibody (Dynabeads kit); precipitates probed with antibodies against PDI/PDIA2 or BiP. This is another data set of the same source.

For “binding immunoglobulin protein (BiP) (from UniProt P11021 19-654)”, the binding result in experiment [1] is recorded as “binds”.
For “D1080N IRBP with a C-terminally fused FLAG or HA epitope (from UniProt P10745 18-1247)”, the binding entry in experiment [2] and in experiment [3] was “binds” each time.
Turning to “wild-type IRBP with a C-terminally fused FLAG or HA epitope (from UniProt P10745 18-1247)”, in experiment [2], the binding result is listed as “binds”.

B1: protein disulfide isomerase A2 (PDIA2) (protein, UniProt D3Z6P0 21-527)
chain: QGEEPGGPSEVLPEEPTGEEVPKEDGILVLNHRTLSLALQEHSALMVEFYAPWCGHCKELAPEYSKAAALLAAESAVVTLAKVDGPAEPELTKEFEVVGYPTLKFFQNGNRTNPEEYAGPKTAEGIAEWLRRRVGPSATHLEDEEGVQALMAKWDMVVIGFFQDLQGKDMATFLALAKDALDMTFGFTDQPQLFEKFGLTKDTVVLFKKFDEGRADFPVDKETGLDLGDLSRFLVIHSMHLVTEFNSQTSPKIFAAKILNHLLLFVNQTLAQHRELLTDFREAAPPFRGQVLFVMVDVAADNSHVLNYFGLKAEEAPTLRLINVETTKKYAPTGVIAITAASVAAFCQAVLHGEIKHYLLSQEIPPDWDQGPVKTLVSKNFEQVAFDETKNVFVKFYAPWCSHCKEMAPAWEALAEKYKDREDIVIAELDATANELEAFSVLGYPTLKFFPAGPDRKVIDYKSTRDLETFSKFLDSGGHLPKEEPKEPAASAPEAQANSTLGPKEEL
With B1, the binding result in experiment [4] is reported as “binds”.

The values are drawn from PMC3630842.
